# According to US7544665 (dated 2009):
# Values joined by “and” are separate entries in the source; they are usually repeats but may differ in a detail not shown here. Identical values can stand only once. Where a sequence shows no end group, the ends are not given.
# Assays:
# [1] = general procedure: hybrid (solid and solution phase) peptide synthesis; 2-CTC resin; TBTU / 6-Chloro HOBT / DIEA; details: coupling step
# [2] = general procedure: hybrid (solid and solution phase) peptide synthesis; 2-CTC; TBTU / 6-Chloro HOBT / DIEA; details: whole synthesis
substance,measurement,setting,value
KNEYELQKLDKWASLWEWF,step yield,[1],90.7%
same,step yield,[1]; % AN HPLC,101%
same,crude HPLC purity,"[1]; HPLC area normalisation (AN), UV at 262 nm",84.1%
KNEYELQKLDKWASLWEW,crude yield,[2],89.8%
same,difficulty met,[2],Kaiser test showed incomplete reaction
Ac-WQEWEQKITALLEQAQIQQE,crude yield,[2]; run 1,54.1% and 30.1%
